# In the supplement of paper PMC10849652:
# Protein sequences, listed by entry. Tags and fused reporters are not part of them. Lines headed by an entry give the natural chain unless they say otherwise; changes in a name come on top.
# UniProt Q9H2H8: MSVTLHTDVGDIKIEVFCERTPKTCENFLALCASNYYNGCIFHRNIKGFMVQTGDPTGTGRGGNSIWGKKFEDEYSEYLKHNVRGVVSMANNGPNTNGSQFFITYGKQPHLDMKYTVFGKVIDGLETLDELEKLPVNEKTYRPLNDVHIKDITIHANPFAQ
# UniProt P31321, whole entry, looked up: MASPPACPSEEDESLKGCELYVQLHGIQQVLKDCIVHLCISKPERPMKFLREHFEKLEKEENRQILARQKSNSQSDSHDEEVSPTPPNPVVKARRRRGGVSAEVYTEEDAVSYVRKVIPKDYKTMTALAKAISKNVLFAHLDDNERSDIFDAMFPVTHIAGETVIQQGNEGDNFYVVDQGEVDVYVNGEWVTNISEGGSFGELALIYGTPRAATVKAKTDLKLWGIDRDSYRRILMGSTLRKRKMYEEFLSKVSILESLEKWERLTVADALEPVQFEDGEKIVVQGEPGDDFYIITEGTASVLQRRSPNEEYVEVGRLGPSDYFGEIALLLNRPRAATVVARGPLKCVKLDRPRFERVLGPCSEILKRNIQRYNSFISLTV
# UniProt Q96A00: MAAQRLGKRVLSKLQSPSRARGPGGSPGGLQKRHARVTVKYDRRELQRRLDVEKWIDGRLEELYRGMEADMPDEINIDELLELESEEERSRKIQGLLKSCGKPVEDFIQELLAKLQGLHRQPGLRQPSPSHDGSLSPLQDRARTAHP
# UniProt P49642: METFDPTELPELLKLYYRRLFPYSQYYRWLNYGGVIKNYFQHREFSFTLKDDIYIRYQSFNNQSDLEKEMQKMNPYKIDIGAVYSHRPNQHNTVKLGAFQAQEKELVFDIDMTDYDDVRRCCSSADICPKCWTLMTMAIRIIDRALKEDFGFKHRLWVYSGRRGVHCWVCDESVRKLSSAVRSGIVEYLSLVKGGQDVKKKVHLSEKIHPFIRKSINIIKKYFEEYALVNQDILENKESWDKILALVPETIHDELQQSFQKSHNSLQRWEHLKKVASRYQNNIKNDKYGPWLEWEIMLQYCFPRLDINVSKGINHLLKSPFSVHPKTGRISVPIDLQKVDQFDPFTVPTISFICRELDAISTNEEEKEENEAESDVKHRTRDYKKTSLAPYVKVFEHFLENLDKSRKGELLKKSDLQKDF
# UniProt Q4J6C6, whole entry, looked up: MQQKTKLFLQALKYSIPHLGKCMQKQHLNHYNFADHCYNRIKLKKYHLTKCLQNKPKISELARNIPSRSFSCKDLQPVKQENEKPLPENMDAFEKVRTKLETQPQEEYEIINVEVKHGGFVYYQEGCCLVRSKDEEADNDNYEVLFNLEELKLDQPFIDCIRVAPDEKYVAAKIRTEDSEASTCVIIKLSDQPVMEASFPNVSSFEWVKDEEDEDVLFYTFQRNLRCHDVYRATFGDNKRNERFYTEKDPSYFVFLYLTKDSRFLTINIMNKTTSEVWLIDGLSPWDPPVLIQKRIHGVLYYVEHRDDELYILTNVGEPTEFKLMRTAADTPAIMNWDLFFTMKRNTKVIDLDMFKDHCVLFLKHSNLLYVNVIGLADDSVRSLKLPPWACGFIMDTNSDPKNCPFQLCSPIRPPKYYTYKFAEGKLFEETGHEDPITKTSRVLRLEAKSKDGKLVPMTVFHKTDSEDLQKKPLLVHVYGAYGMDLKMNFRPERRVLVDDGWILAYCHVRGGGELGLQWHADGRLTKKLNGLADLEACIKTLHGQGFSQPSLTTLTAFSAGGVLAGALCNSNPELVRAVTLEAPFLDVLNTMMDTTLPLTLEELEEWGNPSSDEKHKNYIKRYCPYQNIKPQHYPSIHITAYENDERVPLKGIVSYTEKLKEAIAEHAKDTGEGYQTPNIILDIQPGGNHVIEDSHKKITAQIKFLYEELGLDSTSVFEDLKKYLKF
# UniProt Q8WUF5: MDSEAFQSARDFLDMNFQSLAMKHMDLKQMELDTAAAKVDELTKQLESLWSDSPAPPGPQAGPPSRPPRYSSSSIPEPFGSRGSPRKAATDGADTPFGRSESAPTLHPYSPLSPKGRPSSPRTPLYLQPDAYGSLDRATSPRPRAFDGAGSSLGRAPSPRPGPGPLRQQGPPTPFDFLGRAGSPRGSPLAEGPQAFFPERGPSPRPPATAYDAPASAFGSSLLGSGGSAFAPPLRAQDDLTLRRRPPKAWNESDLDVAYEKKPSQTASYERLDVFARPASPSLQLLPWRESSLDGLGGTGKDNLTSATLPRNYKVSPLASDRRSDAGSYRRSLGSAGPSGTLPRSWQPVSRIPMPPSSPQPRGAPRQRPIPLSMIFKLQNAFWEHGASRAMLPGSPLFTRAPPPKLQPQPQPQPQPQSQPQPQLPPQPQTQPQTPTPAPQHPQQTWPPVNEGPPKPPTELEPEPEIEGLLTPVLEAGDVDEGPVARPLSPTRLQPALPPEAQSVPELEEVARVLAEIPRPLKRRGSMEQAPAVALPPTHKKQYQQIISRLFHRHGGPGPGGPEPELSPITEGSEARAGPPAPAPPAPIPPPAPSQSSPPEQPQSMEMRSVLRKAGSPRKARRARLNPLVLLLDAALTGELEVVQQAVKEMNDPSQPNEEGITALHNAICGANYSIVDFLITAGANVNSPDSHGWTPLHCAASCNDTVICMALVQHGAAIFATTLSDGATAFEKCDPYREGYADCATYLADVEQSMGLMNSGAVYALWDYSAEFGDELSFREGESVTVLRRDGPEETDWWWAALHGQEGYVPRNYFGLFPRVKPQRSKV
# UniProt Q8NI37: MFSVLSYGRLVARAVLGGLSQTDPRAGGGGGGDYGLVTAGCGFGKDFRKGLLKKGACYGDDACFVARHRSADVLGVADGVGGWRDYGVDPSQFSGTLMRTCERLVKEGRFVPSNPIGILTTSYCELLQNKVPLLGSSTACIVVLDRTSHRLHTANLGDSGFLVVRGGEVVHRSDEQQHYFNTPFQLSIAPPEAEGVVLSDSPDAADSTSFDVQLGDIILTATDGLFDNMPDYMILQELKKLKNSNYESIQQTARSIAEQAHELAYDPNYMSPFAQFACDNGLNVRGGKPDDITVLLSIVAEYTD
# UniProt Q13362, whole entry, looked up: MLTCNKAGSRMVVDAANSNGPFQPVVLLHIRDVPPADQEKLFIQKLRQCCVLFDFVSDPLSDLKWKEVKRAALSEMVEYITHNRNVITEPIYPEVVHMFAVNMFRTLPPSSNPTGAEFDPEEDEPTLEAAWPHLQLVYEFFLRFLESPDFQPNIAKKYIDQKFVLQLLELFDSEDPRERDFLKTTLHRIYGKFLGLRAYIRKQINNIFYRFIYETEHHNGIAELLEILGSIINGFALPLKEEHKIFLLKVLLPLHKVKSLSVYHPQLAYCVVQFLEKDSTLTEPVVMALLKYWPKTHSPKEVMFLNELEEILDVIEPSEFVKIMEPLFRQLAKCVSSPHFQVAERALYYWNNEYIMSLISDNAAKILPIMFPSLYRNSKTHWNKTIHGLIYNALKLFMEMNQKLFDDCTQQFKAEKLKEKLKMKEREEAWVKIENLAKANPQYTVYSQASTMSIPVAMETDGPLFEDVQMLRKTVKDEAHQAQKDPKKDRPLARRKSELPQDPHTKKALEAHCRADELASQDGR
# UniProt Q86XN7: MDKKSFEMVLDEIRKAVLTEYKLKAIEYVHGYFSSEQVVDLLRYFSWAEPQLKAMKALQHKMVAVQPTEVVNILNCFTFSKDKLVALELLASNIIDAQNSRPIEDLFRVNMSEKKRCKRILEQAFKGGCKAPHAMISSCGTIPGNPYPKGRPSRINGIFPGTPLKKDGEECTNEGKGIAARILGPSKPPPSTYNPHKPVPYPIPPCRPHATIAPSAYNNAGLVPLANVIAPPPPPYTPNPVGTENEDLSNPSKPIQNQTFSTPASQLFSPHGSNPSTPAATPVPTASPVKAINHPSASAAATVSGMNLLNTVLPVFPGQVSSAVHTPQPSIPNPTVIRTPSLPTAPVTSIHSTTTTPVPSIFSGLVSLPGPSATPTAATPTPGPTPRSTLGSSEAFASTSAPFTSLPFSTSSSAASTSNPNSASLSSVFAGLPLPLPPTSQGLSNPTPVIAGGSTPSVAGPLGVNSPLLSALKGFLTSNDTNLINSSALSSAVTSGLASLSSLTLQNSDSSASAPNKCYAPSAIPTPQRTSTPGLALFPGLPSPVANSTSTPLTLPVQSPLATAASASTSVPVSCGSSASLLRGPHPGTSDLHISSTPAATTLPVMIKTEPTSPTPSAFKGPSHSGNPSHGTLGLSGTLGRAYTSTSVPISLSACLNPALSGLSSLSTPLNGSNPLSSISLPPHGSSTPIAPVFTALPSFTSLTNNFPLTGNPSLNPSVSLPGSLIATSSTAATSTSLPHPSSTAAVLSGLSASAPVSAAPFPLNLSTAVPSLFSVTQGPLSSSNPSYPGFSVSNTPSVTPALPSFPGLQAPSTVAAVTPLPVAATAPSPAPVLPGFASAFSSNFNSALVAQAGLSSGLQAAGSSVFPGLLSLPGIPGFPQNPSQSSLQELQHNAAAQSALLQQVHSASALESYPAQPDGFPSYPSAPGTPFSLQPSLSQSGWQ
# UniProt Q5MIZ7: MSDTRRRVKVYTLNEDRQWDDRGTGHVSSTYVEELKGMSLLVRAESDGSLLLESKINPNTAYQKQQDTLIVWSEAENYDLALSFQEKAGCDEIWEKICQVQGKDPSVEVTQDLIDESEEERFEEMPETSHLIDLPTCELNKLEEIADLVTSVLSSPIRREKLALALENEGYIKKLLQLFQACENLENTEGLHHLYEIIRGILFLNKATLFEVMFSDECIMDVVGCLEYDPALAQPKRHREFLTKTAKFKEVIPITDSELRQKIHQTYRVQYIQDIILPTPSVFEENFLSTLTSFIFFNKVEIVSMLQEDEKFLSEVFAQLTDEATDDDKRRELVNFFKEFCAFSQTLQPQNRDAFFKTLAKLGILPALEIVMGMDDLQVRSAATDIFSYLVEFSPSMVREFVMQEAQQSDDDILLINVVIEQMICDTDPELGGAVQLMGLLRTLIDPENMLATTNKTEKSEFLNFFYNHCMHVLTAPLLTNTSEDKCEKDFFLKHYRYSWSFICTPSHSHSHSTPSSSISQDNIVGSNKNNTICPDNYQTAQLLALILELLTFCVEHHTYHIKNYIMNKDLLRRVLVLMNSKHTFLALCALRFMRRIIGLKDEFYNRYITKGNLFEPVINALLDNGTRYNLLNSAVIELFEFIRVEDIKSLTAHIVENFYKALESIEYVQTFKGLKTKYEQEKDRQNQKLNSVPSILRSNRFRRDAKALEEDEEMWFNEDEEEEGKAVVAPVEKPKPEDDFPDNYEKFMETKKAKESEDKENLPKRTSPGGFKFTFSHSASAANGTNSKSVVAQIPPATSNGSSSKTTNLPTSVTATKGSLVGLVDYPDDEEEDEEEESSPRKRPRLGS
# UniProt Q9HCU5: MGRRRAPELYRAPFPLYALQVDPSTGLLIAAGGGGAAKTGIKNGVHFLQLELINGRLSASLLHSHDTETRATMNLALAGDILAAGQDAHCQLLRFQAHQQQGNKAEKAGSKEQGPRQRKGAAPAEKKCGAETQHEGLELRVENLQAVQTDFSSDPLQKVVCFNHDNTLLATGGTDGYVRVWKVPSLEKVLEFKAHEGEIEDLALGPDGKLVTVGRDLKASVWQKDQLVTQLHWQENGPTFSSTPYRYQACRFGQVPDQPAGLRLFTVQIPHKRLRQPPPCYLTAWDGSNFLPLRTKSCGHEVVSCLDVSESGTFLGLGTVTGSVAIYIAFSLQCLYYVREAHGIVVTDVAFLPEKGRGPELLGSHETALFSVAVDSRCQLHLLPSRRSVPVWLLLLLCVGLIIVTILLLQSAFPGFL
# UniProt O60828: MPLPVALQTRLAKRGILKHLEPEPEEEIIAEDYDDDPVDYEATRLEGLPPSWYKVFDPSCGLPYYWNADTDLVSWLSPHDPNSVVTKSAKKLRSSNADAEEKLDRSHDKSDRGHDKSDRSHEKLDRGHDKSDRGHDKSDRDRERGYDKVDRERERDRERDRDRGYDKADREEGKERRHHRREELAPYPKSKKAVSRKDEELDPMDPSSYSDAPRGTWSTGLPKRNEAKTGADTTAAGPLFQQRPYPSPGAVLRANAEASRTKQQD
# UniProt Q6NYC8: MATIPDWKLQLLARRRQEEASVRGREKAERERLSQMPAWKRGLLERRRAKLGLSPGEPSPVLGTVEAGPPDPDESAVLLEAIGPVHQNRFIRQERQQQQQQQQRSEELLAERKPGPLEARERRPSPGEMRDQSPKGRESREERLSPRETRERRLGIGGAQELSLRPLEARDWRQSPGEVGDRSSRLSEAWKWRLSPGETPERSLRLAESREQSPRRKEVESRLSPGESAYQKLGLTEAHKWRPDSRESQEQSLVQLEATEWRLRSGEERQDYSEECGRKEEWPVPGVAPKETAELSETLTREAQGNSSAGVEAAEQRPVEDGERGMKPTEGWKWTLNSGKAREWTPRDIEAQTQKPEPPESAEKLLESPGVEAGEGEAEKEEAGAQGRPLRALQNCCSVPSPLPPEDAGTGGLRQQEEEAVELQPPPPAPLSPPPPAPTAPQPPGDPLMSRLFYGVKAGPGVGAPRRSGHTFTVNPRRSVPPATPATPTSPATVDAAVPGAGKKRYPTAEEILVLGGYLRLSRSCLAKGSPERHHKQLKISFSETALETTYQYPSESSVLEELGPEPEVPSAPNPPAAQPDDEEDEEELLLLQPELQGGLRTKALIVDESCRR
# This is one part of the list.
# Assays:
# Test in all cases: log2 fold change, soluble protein after heating vs DMSO (PISA); higher = thermal stabilisation; K562 lysate, 10 uM; active = over 0.2 and 3.5 SD of the protein, either way, in both replicates (recomputed)
# [1] = compound: NCC(=O)Nc1ccc(-n2nc(C(F)(F)F)cc2-c2ccc3c(ccc4ccccc43)c2)cc1
# Method in brief: (§1)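 Thermal stability, expressed as log-two fold change relative to solvent controls, is given from duplicates. Crude K562 extract in PBS pH 7.4 with 1 mM MgCl2, at 1 mg/mL protein, was treated with 10 μM compound for 30 min and heated in aliquots for 3 min across 48°C-58°C. After pooling, adjustment to 0.5% NP-40 at 4°C and centrifugation at 21,000xg for 90 min, supernatant protein was measured by TMTpro 16plex LC-MS/MS with channel sums equalised.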
# [2] = compound: O=C(CCCCCCC(=O)Nc1ccccc1)NO [vorinostat]
# Method in brief: as §1
# [3] = compound: O=C(O)c1ccc2c(c1)nc(Nc1cccc(Cl)c1)c1ccncc12 [silmitasertib]
# Method in brief: as §1
# [4] = compound: O=C1NC(=O)C(c2cnc3ccccn23)=C1c1cn2c3c(cc(F)cc13)CN(C(=O)N1CCCCC1)CC2
# Method in brief: as §1
# [5] = compound: c1cn2cc(-c3ccc4cn[nH]c4c3)nc(Nc3ccc(N4CCOCC4)cc3)c2n1 [entospletinib]
# Method in brief: as §1
Target,log2 fold change [1],log2 fold change [2],log2 fold change [3],log2 fold change [4],log2 fold change [5]
PPP3CB (UniProt P16298),inactive: -0.004,inactive: 0.046,inactive: 0.066,inactive: -0.019,inactive: -0.006
PPP2R2D (UniProt Q66LE6),inactive: 0.05,inactive: 0.006,inactive: 0.055,inactive: -0.022,
PPIL3 (UniProt Q9H2H8),inactive: 0.084,inactive: -0.155,inactive: -0.022,inactive: 0.029,inactive: -0.016
PRKAR1B (UniProt P31321),inactive: -0.114,inactive: -0.07,inactive: 0.058,inactive: -0.057,inactive: 0.009
PPP1R14A (UniProt Q96A00),inactive: 0.043,inactive: 0.169,inactive: -0.004,inactive: 0.016,inactive: 0.034
PRIM1 (UniProt P49642),inactive: -0.015,active: -0.284,inactive: 0.049,inactive: 0.024,inactive: 0.035
PRMT3 (UniProt O60678),inactive: 0.027,inactive: -0.05,inactive: 0,inactive: -0.03,inactive: 0.024
PRMT8 (UniProt Q9NR22),inactive: 0.067,inactive: -0.157,inactive: -0.018,inactive: -0.017,inactive: 0.002
PRKCA (UniProt P17252),inactive: -0.045,inactive: -0.14,inactive: 0.044,inactive: 0.087,inactive: 0.018
PPP1R12B isoform 6 (UniProt O60237),inactive: 0.168,inactive: -0.063,inactive: 0.091,inactive: -0.005,inactive: -0.052
PREPL (UniProt Q4J6C6),inactive: 0.018,inactive: 0.023,inactive: 0.034,inactive: 0.01,inactive: -0.026
PPP1R13L (UniProt Q8WUF5),inactive: -0.001,inactive: 0.089,inactive: -0.048,inactive: -0.011,inactive: 0.108
PPTC7 (UniProt Q8NI37),inactive: 0.135,,,,
PRKAR2B (UniProt P31323),inactive: 0.014,inactive: -0.093,inactive: 0.009,inactive: 0.025,inactive: -0.055
PPP2R5C isoform 2 (UniProt Q13362),inactive: -0.004,inactive: -0.12,inactive: 0.015,inactive: 0.086,
PPM1H (UniProt Q9ULR3),inactive: -0.004,inactive: 0.206,inactive: -0.05,inactive: -0.045,inactive: -0.002
PROSER3 (UniProt Q2NL68),inactive: 0.05,inactive: -0.596,inactive: 0.146,inactive: 0.01,
PROSER1 (UniProt Q86XN7),inactive: -0.015,inactive: -0.513,inactive: -0.091,,
PPP4R3B (UniProt Q5MIZ7),inactive: -0.039,inactive: 0.006,inactive: 0.019,inactive: 0.002,inactive: 0.019
PREB (UniProt Q9HCU5),inactive: 0.044,inactive: 0.15,inactive: -0.01,inactive: -0.017,inactive: 0.01
PQBP1 (UniProt O60828),inactive: 0.027,inactive: 0.105,inactive: -0.087,inactive: 0.008,inactive: 0.002
PRPF31 (UniProt Q8WWY3),inactive: -0.023,inactive: -0.213,inactive: 0.005,inactive: -0.029,inactive: 0.027
PPP1R35 (UniProt Q8TAP8),inactive: -0.027,inactive: -0.054,inactive: 0.143,inactive: 0.011,inactive: -0.012
PPP1R18 (UniProt Q6NYC8),inactive: 0.009,inactive: -0.005,inactive: 0.008,inactive: -0.007,inactive: -0.003
PPP2R5C isoform 4 (UniProt Q13362),inactive: 0.075,inactive: 0.082,inactive: -0.067,inactive: 0.074,inactive: -0.012

# Random excerpt: two records from the list, in no set order.
Target,log2 fold change [1],log2 fold change [2],log2 fold change [3],log2 fold change [4],log2 fold change [5]
PPP1R12B isoform 6 (UniProt O60237),inactive: 0.168,inactive: -0.063,inactive: 0.091,inactive: -0.005,inactive: -0.052
PPTC7 (UniProt Q8NI37),inactive: 0.135,,,,
